# Test results: the supplement of paper PMC10398353
# Counter-ions that a name gives are not always drawn. ± gives the standard deviation of the averaged measurements. Some of the results follow. Single values of this set are uncertain.
# Tested on: Salmonella enterica serovar Typhimurium ST313 D23580
# Experiment: normalized bacterial growth (OD600 20 h minus 0 h, interquartile-mean normalized) (fraction of plate interquartile mean); higher = more bacterial growth (less inhibition)
# Conditions: LPM (pH 5.8, low phosphate, low Mg2+), concentration: 10 µM, temperature: 37 °C
row,Compound,normalized bacterial growth
1,COc1ccc(Cl)cc1C(=O)NCCc1ccc(S(=O)(=O)NC(=O)NC2CCCCC2)cc1 [Glybenclamide],0.923
2,CC(C)=CCC1=C(O)C(=O)c2ccccc2C1=O,0.795
3,CC#C[C@]1(O)CC[C@H]2[C@@H]3CCC4=CC(=O)CCC4=C3[C@@H](c3ccc(N(C)C)cc3)C[C@@]21C [Mifepristone],1.11
4,CCCOc1ccccc1-c1nc2[nH]nnc2c(=O)[nH]1 [Zaprinast],1.07 ± 0.015
5,CCCCCCNC(=O)n1cc(F)c(=O)[nH]c1=O,0.0478
6,Cc1cc(O)c2c(c1O)C(=O)c1c(O)cc(C)c(O)c1C2=O,1.25
7,COc1cc(OC)c2ccc(=O)oc2c1,0.997
8,O=C(CCBr)N1CCN(C(=O)CCBr)CC1,1.02
9,CCCCC1C(=O)N(c2ccccc2)N(c2ccc(O)cc2)C1=O (configuration not stated),1.13
10,N[C@H]1CONC1=O [L-Cycloserine],1.05
11,N[C@H]1CONC1=O,0.896
12,O=C(O)c1cc(=O)c(O)c2c(O)c(O)c(O)cc2c1,0.304
13,O=c1c(O)c(-c2ccc(O)cc2)oc2cc(O)cc(O)c12,1.01
14,CC(=O)Nc1ccc(OC(=O)c2ccccc2O)cc1,1.01
15,COc1cc2nc(N3CCN(C(=O)C4COc5ccccc5O4)CC3)nc(N)c2cc1OC (configuration not stated) [Doxazosin mesylate],0.646
16,COC(=O)C[C@H]1C2(C)CC34OC5(C)O[C@@]6([C@H](OC(C)=O)C(OC(C)=O)[C@]7(C)C(/C(=C(/O)C(C)C)C(=O)O[C@H]7c7ccoc7)[C@@]6(O5)[C@H](OC(C)=O)[C@@]3(O)C2OC(=O)C(C)C)[C@]14C (some centres not stated),0.936
17,"O=c1[nH]ccc2c(O)cccc12 [""1,5-Isoquinolinediol""]",1.19
18,CC(C)(CO)[C@@H](O)C(=O)NCCC(=O)O [PANTOTHENIC ACID(d) Na salt],1.15
19,CC(C)(CO)[C@@H](O)C(=O)NCCC(=O)O [Pantothenic acid calcium salt monohydrate],1.16
20,Cc1cc(C(C)(C)C)cc(C)c1CC1=NCCN1 [Xylometazoline hydrochloride],1.03
21,CCN(CCCCOC(=O)c1ccc(OC)c(OC)c1)C(C)Cc1ccc(OC)cc1 (configuration not stated),0.54

row,Compound,normalized bacterial growth
1,O=C(c1cc(O)c(O)c([N+](=O)[O-])c1)c1ccccc1F,1.15
2,CC(=O)O[C@@H]1CC(=O)[C@@]2(C)C(CC(=O)[C@]3(C)C2CC[C@@]2(C)[C@H](c4ccoc4)OC(=O)C4OC423)C1(C)C (some centres not stated),0.805
3,CCOC(=O)c1c(C)cc(OC)cc1O,0.798
4,CC(=O)O[C@H]1CC(=O)OC(C)(C)[C@@H]2CC(=O)[C@]3(C)[C@H](CC[C@@]4(C)[C@@H](c5ccoc5)OC(=O)[C@H]5O[C@]543)[C@@]12C,1.01
5,CCN(CC)CCOCCOC(=O)C1(c2ccccc2)CCCC1 [Carbetapentane citrate],0.842
6,NC[C@H]1O[C@H](O[C@H]2[C@H](O)[C@@H](O[C@H]3O[C@H](CO)[C@@H](O)[C@H](N)[C@H]3O)[C@H](N)C[C@@H]2N)[C@H](N)C[C@@H]1O,0.804
7,C#Cc1ccc2c(c1)C(=O)N(C)Cc1c(C(=O)OCCCOC(=O)c3ncn4c3CN(C)C(=O)c3cc(C#C)ccc3-4)ncn1-2 [Xli 093 hydrate],1.04
8,Cc1c(N)c(=O)n(-c2ccccc2)n1C [Ampyrone],1.22
9,COc1ccc2c(c1)c(CC(=O)O)c(C)n2C(=O)c1ccccc1 [1-benzoyl-5-methoxy-2-methylindole-3-acetic acid],0.903
10,C=C/C(C)=C/[C@@]1(C)SC(=O)C(C)=C1O [Thiolactomycin],0.785
11,CCOC(=O)Nc1nc2ccccc2[nH]1,1.03
12,COc1ccc(-c2oc3cc(OC)c(OC)c(OC)c3c(=O)c2OC)cc1OC,0.888
13,NS(=O)(=O)C#Cc1ccccc1 [Pifithrin-mu],0.81
14,Nc1c(S(=O)(=O)O)cc(Nc2ccc(Nc3nc(Cl)nc(Nc4cccc(S(=O)(=O)O)c4)n3)c(S(=O)(=O)O)c2)c2c1C(=O)c1ccccc1C2=O [Reactive Blue 2],0.682
15,Cc1ccc(C(=O)C(C)CN2CCCCC2)cc1 (configuration not stated),0.834
16,"c1ccc(CN2CCC3(CCCc4ccccc43)CC2)cc1 [""L-687,384 hydrochloride""]",0.765
17,CNCC[C@@H](Oc1ccccc1C)c1ccccc1 [Tomoxetine],0.834
18,CNCC[C@@H](Oc1ccccc1C)c1ccccc1,1.16
19,OC[C@H]1O[C@@H](O[C@@H]2OC=C[C@H]3[C@H](O)[C@@H]4O[C@]4(CO)[C@@H]23)[C@H](O)[C@@H](O)[C@@H]1O,1.36
20,O=C(CCCCC(=O)Nc1c(I)cc(I)c(C(=O)O)c1I)Nc1c(I)cc(I)c(C(=O)O)c1I,0.731
21,O=C(CCCCC(=O)Nc1c(I)cc(I)c(C(=O)O)c1I)Nc1c(I)cc(I)c(C(=O)O)c1I [Iodipamide],1.21

row,Compound,normalized bacterial growth
1,COc1cc(C(C)=O)cc(OC)c1O,1.07
2,CC(C)=CCC/C(C)=C\CO,0.949
3,COCCCOc1ccnc(C[S+]([O-])c2nc3ccccc3[nH]2)c1C (configuration not stated),1.18
4,"O=C(O)Cc1cc(I)c(Oc2ccc(O)c(I)c2)c(I)c1 [""Tiratricol, 3,3',5-triiodothyroacetic acid""]",0.723
5,COCCCOc1cc(C[C@@H](C[C@H](N)[C@@H](O)C[C@H](C(=O)NCC(C)(C)C(N)=O)C(C)C)C(C)C)ccc1OC,1.02
6,CCCCOC(=O)c1ccc(O)cc1,0.72
7,C#C[C@]1(OC(C)=O)CC[C@H]2[C@@H]3CCC4=CC(=O)CC[C@@H]4[C@H]3CC[C@@]21C,0.774
8,CCCc1nc2c(C)cc(-c3nc4ccccc4n3C)cc2n1Cc1ccc(-c2ccccc2C(=O)O)cc1,0.637
9,"O=C(O)Cc1ccc(O)c(O)c1 [""3,4-Dihydroxyphenylacetic acid""]",0.901
10,CC(=O)/N=c1/sc(S(N)(=O)=O)nn1C [Methazolamide],1.27
11,CC(=O)/N=c1/sc(S(N)(=O)=O)nn1C,1.04
12,CC1=CC(=O)c2ccccc2C1=O,0.768
13,COc1ccc(-c2cc(=O)c3c(O)c(OC)c(OC)c(OC)c3o2)cc1OC,0.879
14,N=C(N)N1CCc2ccccc2C1 [Debrisoquin sulfate],1.07 ± 0.076
15,N=C(N)SCCN [2-(2-Aminoethyl)isothiourea dihydrobromide],1.07
16,CCCCC1C(=O)N(c2ccccc2)N(c2ccccc2)C1=O [Phenylbutazone],1.02
17,O=C(O)/C=C/C=C/c1ccccc1,1.06
18,CCCCC[C@@H](O)[C@H]1C(=O)O[C@H](C)[C@@H](O)/C=C/C=C/C=C/C=C/C=C(\C)[C@@H](O)C[C@H](O)C[C@H](O)C[C@H](O)C[C@H](O)C[C@H](O)C[C@@H]1O,1.08
19,O=C(Nc1ccccc1)OCC(CN1CCCCC1)OC(=O)Nc1ccccc1 (configuration not stated),1.06
20,"CC1(C)C(=O)N(CCN2CCC(C(=O)c3ccc(F)cc3)CC2)c2ccccc21 [""LY-310,762 hydrochloride""]",0.884
21,COc1c(O)cc(O)cc1O,0.972

row,Compound,normalized bacterial growth
1,NC(=O)Nc1sc(-c2ccc(F)cc2)cc1C(N)=O,1.08
2,C[C@@H]1O[C@@H](OC[C@H]2O[C@@H](Oc3c(-c4ccc(O)c(O)c4)oc4cc(O)cc(O)c4c3=O)[C@H](O)[C@@H](O)[C@@H]2O)[C@H](O)[C@H](O)[C@H]1O,1.03
3,C[C@@H]1O[C@@H](OC[C@H]2O[C@@H](Oc3c(-c4ccc(O)c(O)c4)oc4cc(O)cc(O)c4c3=O)[C@H](O)[C@@H](O)[C@@H]2O)[C@H](O)[C@H](O)[C@H]1O [RUTOSIDE  (rutin)],1.13
4,CCCC(=O)Nc1ccc(OCC(O)CNC(C)C)c(C(C)=O)c1 (configuration not stated),1.2
5,CC(=O)Nc1ccc(OCC(O)CNC(C)C)cc1 (configuration not stated),1.25
6,CN1[C@@H]2CC[C@H]1C[C@@H](OC(c1ccccc1)c1ccccc1)C2 [Benztropine mesylate],0.75
7,N=C(N=C(N)N)N1CCOCC1 [Moroxidine hydrochloride],1.09
8,COc1cc(O)c(C(=O)/C=C/c2ccc(O)c(OC)c2)c(OC)c1,0.609
9,CC(=O)OCC(=O)[C@@]12OC3(CCCC3)O[C@@H]1C[C@H]1[C@@H]3CCC4=CC(=O)C=C[C@]4(C)[C@@]3(F)[C@@H](O)C[C@@]12C,1.01
10,COc1cc2c(cc1OC)Cc1cc(OC)c(OC)cc1Cc1cc(OC)c(OC)cc1C2,0.748
11,N[C@@H](CC(=O)N1CCn2c(nnc2C(F)(F)F)C1)Cc1cc(F)c(F)cc1F,1.01
12,C[C@@H]1O[C@@H](O[C@H]2[C@H](Oc3cc(O)c4c(c3)O[C@H](c3ccc(O)cc3)CC4=O)O[C@H](CO)[C@@H](O)[C@@H]2O)[C@H](O)[C@H](O)[C@H]1O [Naringin hydrate],1.32
13,C[C@@H]1O[C@@H](O[C@H]2[C@H](Oc3cc(O)c4c(c3)O[C@H](c3ccc(O)cc3)CC4=O)O[C@H](CO)[C@@H](O)[C@@H]2O)[C@H](O)[C@H](O)[C@H]1O,1.08 ± 0.42
14,OCC(O)C(O)C(O)CO (configuration not stated),0.756
15,CC1CCC2(OC1)OC1CC3C4CCC5C[C@@H](O)CCC5(C)C4=CCC3(C)C1[C@@H]2C (stereo partly drawn) [3beta-HYDROXYISOALLOSPIROST-9(11)-ENE],0.935
16,C#CC1(O)CC[C@H]2[C@@H]3CCC4=CC(=O)CC[C@@H]4[C@H]3CC[C@@]21CC (some centres not stated),1.16
17,Cc1nc(N=Nc2cc(S(=O)(=O)O)c3cc([N+](=O)[O-])cc(S(=O)(=O)O)c3c2)c(COP(=O)(O)O)c(C=O)c1O [PPNDS tetrasodium],1.03
18,Cc1cccc(C)c1NC(=O)CN1CCN(CCCC(c2ccc(F)cc2)c2ccc(F)cc2)CC1 [Lidoflazine],0.855
19,Cc1cccc(C2CN(C)CCc3c2cc(O)c(O)c3Cl)c1 (configuration not stated),0.597
